In the supplement of paper PMC10849652:
Some of the results follow.

By UniProt entry, the sequences of proteins in these tests, tags left out. Where a name states a change or a piece, a line headed by the entry shows the natural chain unless it says otherwise.
UniProt Q9HCN8: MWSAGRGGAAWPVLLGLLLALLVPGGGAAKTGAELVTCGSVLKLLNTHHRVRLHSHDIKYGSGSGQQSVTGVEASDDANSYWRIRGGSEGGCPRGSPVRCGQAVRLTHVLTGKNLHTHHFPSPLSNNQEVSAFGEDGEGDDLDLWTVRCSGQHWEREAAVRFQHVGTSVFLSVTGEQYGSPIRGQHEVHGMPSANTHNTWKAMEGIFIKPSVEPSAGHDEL
UniProt Q9NX18: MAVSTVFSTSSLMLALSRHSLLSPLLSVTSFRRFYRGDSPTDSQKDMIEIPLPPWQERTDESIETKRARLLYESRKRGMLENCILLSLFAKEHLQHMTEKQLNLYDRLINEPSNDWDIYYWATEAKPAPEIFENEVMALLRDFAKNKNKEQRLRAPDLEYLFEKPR
UniProt Q96LD8: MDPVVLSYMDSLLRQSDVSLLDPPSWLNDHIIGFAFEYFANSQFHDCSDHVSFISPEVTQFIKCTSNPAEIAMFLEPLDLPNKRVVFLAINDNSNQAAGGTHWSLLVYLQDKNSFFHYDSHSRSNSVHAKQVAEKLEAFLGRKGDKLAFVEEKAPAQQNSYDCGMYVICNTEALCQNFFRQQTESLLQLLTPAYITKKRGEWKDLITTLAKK
UniProt Q9Y6D0, whole entry, looked up: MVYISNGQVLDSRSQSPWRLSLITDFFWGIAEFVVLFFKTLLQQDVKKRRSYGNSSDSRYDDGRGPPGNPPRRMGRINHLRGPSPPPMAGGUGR
UniProt Q96NL6: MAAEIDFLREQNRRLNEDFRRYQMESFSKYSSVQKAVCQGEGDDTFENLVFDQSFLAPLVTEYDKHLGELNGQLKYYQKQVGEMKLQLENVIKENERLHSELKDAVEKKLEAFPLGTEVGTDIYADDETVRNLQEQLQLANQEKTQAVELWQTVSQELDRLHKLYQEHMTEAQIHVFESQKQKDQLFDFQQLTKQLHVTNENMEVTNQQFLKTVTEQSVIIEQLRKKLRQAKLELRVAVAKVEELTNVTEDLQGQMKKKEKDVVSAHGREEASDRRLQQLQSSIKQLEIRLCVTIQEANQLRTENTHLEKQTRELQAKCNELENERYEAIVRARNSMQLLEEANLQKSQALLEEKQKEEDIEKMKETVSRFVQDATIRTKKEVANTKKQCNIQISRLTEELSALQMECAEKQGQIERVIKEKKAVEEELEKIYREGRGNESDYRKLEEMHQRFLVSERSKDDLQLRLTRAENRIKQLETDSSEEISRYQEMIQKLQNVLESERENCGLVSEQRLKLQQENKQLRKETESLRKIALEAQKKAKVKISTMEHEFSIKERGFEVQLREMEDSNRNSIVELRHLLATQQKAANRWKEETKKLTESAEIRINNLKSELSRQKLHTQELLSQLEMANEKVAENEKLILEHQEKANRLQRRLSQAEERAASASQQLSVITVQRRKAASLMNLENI
UniProt Q68CR1: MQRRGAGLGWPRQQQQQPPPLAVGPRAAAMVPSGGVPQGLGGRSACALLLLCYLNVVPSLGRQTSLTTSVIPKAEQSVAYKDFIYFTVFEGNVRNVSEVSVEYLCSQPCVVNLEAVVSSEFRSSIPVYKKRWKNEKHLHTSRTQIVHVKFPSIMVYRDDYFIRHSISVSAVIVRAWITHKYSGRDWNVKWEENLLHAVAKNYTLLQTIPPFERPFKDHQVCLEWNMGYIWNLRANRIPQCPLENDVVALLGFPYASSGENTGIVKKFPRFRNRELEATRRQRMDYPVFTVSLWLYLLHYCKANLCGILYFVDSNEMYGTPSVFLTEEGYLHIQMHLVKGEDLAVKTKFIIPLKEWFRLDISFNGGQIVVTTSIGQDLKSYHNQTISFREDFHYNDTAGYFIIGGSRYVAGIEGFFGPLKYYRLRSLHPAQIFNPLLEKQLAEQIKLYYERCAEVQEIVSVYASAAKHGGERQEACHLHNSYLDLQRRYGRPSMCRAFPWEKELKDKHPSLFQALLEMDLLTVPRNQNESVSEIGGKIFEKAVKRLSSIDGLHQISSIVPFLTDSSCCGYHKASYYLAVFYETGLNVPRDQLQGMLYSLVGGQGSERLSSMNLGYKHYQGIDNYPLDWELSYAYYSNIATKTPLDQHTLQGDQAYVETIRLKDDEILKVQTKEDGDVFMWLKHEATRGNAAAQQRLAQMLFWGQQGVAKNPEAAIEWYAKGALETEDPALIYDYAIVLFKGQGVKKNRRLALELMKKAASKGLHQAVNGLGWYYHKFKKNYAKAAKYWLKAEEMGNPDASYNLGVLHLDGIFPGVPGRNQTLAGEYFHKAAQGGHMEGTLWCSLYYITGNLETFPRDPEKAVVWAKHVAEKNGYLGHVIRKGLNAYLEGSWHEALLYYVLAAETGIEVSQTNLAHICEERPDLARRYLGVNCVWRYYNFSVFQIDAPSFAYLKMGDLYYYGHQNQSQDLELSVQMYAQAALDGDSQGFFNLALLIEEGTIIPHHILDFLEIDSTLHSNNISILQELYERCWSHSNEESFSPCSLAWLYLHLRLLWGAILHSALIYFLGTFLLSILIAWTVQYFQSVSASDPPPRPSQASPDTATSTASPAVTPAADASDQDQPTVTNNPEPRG
UniProt Q8WTV0: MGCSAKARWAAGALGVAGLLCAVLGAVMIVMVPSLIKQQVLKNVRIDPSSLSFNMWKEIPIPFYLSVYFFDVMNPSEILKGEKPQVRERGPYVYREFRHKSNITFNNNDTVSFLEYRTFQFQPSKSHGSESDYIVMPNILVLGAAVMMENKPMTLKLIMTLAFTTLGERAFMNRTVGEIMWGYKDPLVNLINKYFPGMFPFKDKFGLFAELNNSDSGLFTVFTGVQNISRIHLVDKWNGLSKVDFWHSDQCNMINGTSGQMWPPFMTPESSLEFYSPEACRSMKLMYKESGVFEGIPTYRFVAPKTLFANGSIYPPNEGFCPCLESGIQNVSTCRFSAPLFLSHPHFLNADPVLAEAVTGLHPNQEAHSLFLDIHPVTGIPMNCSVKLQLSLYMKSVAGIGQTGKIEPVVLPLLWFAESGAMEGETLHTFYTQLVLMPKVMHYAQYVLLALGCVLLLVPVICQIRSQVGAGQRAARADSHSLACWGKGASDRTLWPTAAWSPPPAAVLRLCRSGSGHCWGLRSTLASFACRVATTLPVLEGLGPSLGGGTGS
UniProt Q9BRK5: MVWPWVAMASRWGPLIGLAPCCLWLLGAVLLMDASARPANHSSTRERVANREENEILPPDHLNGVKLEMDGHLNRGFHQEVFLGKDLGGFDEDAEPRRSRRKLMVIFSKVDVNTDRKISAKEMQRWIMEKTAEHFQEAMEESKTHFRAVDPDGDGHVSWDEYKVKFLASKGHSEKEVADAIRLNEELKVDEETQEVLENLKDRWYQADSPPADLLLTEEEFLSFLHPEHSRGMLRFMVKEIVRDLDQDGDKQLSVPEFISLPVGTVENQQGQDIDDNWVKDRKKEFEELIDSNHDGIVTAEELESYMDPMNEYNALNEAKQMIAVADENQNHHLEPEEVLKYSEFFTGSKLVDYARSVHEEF
UniProt P60468, whole entry, looked up: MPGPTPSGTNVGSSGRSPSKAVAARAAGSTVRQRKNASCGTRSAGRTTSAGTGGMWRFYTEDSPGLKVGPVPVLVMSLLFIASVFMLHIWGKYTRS
UniProt Q14151: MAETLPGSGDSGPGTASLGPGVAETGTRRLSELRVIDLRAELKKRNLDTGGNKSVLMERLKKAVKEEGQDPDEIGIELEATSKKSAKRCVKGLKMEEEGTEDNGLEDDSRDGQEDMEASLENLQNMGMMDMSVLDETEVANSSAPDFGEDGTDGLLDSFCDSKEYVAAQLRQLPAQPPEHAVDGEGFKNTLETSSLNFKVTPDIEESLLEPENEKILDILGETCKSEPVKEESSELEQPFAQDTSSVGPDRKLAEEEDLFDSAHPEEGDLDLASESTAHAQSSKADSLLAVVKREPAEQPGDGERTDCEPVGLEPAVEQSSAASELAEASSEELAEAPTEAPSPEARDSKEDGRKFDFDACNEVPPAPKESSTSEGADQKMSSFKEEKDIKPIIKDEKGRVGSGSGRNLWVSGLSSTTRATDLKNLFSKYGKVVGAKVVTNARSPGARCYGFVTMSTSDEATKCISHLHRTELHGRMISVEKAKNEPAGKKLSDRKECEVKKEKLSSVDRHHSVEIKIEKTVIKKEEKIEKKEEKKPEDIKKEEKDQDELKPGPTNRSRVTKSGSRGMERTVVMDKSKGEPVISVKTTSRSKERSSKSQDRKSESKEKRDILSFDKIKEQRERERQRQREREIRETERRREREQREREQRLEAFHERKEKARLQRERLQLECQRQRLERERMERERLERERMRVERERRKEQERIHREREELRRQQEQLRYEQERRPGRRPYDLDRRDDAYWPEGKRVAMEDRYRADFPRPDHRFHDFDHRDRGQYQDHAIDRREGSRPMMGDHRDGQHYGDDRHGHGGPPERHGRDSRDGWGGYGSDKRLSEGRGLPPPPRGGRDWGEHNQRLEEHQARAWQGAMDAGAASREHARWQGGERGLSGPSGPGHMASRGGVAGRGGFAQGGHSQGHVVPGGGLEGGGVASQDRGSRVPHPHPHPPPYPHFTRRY
UniProt O94855: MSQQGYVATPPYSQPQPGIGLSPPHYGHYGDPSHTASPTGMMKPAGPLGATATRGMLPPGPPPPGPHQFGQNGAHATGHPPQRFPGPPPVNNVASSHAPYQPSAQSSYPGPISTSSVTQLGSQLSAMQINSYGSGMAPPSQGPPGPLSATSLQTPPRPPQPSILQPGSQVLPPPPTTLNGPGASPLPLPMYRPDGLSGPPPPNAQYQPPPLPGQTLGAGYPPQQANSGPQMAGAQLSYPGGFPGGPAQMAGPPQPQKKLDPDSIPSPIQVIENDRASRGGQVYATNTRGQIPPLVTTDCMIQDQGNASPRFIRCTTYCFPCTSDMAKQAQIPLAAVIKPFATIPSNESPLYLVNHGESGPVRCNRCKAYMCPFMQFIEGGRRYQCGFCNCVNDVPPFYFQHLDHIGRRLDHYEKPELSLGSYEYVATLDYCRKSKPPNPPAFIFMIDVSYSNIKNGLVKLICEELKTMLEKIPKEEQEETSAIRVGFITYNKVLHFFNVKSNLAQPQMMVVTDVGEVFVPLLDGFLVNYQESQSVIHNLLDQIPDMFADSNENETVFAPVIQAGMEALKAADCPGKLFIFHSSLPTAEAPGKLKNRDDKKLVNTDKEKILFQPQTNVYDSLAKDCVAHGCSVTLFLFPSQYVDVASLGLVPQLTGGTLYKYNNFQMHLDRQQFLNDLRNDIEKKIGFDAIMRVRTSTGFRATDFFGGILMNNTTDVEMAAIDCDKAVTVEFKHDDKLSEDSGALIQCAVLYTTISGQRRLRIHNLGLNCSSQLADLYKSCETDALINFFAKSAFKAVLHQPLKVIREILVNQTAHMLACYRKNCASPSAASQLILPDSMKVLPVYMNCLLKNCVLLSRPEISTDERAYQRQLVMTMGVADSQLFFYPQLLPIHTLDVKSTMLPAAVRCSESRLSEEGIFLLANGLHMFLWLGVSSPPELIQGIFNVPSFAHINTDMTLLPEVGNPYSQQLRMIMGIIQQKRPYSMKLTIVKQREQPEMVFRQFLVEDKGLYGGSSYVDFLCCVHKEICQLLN
UniProt Q9NRP4: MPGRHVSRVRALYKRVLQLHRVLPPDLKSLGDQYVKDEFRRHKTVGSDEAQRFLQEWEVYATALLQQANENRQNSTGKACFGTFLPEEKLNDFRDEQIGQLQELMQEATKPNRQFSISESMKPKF
UniProt P31040: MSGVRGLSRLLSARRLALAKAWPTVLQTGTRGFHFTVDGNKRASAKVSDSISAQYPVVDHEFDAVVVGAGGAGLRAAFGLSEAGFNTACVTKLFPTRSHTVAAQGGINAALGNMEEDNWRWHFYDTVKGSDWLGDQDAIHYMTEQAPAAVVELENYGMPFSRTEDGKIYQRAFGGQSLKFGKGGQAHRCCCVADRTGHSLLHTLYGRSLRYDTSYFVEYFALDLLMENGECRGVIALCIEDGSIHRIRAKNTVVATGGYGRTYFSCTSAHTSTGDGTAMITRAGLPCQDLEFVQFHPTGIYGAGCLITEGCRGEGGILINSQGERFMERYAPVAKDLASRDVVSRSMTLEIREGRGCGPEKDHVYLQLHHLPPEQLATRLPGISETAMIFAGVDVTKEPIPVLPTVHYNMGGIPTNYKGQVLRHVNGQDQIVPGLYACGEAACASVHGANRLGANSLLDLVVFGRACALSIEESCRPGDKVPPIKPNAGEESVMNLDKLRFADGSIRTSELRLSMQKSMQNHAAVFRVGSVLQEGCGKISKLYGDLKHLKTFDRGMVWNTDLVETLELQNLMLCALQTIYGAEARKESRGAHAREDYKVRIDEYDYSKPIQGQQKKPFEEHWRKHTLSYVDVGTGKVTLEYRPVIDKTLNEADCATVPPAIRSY
UniProt P21912: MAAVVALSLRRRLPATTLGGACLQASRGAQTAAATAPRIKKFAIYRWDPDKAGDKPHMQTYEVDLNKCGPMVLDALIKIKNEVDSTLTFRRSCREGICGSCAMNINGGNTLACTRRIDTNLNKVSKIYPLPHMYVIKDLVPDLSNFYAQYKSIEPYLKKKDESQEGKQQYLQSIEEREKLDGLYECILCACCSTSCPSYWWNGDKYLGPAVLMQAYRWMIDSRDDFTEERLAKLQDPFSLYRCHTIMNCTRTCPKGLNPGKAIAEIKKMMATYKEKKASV

Assays:
Experiment in all cases: log2 fold change, soluble protein after heating vs DMSO (PISA); higher = thermal stabilisation; K562 lysate, 10 uM; active = over 0.2 and 3.5 SD of the protein, either way, in both replicates (recomputed)
[1] = compound: NCC(=O)Nc1ccc(-n2nc(C(F)(F)F)cc2-c2ccc3c(ccc4ccccc43)c2)cc1
Summary of the method: (§1)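 K562 pellets were dounce-homogenised in PBS pH 7.4 with 1 mM MgCl2, and the crude extract at 1 mg/mL protein was treated with 10 μM compound for 30 min. Aliquots were heated for 3 min across 48°C-58°C, pooled, and brought to 0.5% NP-40 at 4°C; soluble protein was the supernatant after 21,000xg for 90 min. Soluble protein was quantified by TMTpro 16plex LC-MS/MS with channel sums equalised, and reported as log2 fold change in thermal stability against DMSO controls, with values from duplicates.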

vorinostat = compound: O=C(CCCCCCC(=O)Nc1ccccc1)NO [vorinostat]
Summary of the method: as §1

silmitasertib = compound: O=C(O)c1ccc2c(c1)nc(Nc1cccc(Cl)c1)c1ccncc12 [silmitasertib]
Summary of the method: as §1

[2] = compound: O=C1NC(=O)C(c2cnc3ccccn23)=C1c1cn2c3c(cc(F)cc13)CN(C(=O)N1CCCCC1)CC2
Summary of the method: as §1

entospletinib = compound: c1cn2cc(-c3ccc4cn[nH]c4c3)nc(Nc3ccc(N4CCOCC4)cc3)c2n1 [entospletinib]
Summary of the method: as §1

Measured: log2 fold change

SDF2L1 (UniProt Q9HCN8)
inactive: [1] 0.01 | vorinostat 0.094 | silmitasertib -0.023 | [2] -0.006 | entospletinib 0

SEC61A1 (UniProt P61619)
inactive: [1] 0.011 | vorinostat 0.037 | silmitasertib -0.025 | [2] 0.005 | entospletinib 0.017

SDHAF2 (UniProt Q9NX18)
inactive: [1] 0.018 | vorinostat 0.046 | silmitasertib -0.01 | [2] 0.042 | entospletinib -0.068

SENP8 (UniProt Q96LD8)
inactive: [1] 0.141 | vorinostat -0.006 | silmitasertib 0.049 | [2] 0.019 | entospletinib -0.118

SDHB, A0A087WXX8
inactive: [1] 0.021

Quoted at random: two records from the list, in no set order.
SDHB, A0A087WXX8
inactive: [1] 0.021

SDHAF2 (UniProt Q9NX18)
inactive: [1] 0.018 | vorinostat 0.046 | silmitasertib -0.01 | [2] 0.042 | entospletinib -0.068

Later entries:

SAMSN1 (UniProt Q9NSI8)
inactive: [1] 0.003 | vorinostat 0.04 | silmitasertib -0.001 | [2] -0.011 | entospletinib 0.002

SELENOK (UniProt Q9Y6D0)
inactive: [1] -0.192

SCLT1 (UniProt Q96NL6)
inactive: [1] 0.043 | vorinostat -0.093 | silmitasertib -0.029 | [2] 0.002 | entospletinib -0.071

SEL1L3 (UniProt Q68CR1)
inactive: [1] 0.05 | vorinostat 0.068 | silmitasertib -0.052 | [2] 0.002 | entospletinib 0.057

SBNO2 (UniProt Q9Y2G9)
inactive: [1] 0.126

SDAD1 (UniProt Q9NVU7)
inactive: [1] -0.035 | vorinostat 0.092 | silmitasertib 0.021 | [2] 0.006 | entospletinib 0.021

SEPHS2 (UniProt Q99611)
inactive: [1] 0.012 | vorinostat 0.092 | silmitasertib -0.028 | [2] 0 | entospletinib -0.024

SEC24C (UniProt P53992)
inactive: [1] 0.01 | vorinostat -0.19 | silmitasertib 0.006 | [2] 0.012 | entospletinib -0.009

SCARB1 isoform 2 (UniProt Q8WTV0)
inactive: [1] 0.005 | vorinostat 0.114 | silmitasertib 0.003 | [2] -0.018 | entospletinib 0.005

SDF4 (UniProt Q9BRK5)
inactive: [1] 0.006 | vorinostat 0.122 | silmitasertib 0.004 | [2] 0.013 | entospletinib 0.001

SEC61B (UniProt P60468)
inactive: [1] -0.04 | vorinostat 0.145 | silmitasertib 0.047 | [2] -0.158 | entospletinib 0.017

SEPTIN5 (UniProt Q99719)
inactive: [1] -0.008 | vorinostat 0.005 | silmitasertib 0.011 | [2] -0.028 | entospletinib 0.009

SEPTIN6 (UniProt Q14141)
inactive: [1] -0.075 | vorinostat 0.067 | silmitasertib -0.016 | [2] 0 | entospletinib 0.004

SAFB2 (UniProt Q14151)
inactive: [1] 0.016 | vorinostat -0.184 | silmitasertib -0.013 | [2] -0.021 | entospletinib -0.015

SEC24D isoform 2 (UniProt O94855)
active: vorinostat -0.251
inactive: [1] -0.017 | silmitasertib 0.037 | [2] -0.013 | entospletinib -0.003

SEC31A (UniProt D6REX3)
inactive: [1] -0.025 | vorinostat 0.017 | silmitasertib 0.007 | [2] -0.003 | entospletinib 0.008

SAMD4B (UniProt Q5PRF9)
inactive: [1] 0.022 | vorinostat -0.096 | silmitasertib 0.046 | [2] 0.038 | entospletinib -0.062

SCRN2 (UniProt Q96FV2)
inactive: [1] 0.004 | vorinostat 0.345 | silmitasertib -0.125 | [2] -0.038 | entospletinib 0.024

SDHAF3 (UniProt Q9NRP4)
inactive: [1] -0.079 | vorinostat -0.199 | silmitasertib -0.02 | [2] -0.052 | entospletinib 0.001

SDHA (UniProt P31040)
inactive: [1] 0.007 | vorinostat 0.058 | silmitasertib -0.014 | [2] -0.028 | entospletinib -0.006

SDHB (UniProt P21912)
inactive: [1] -0.018 | vorinostat 0.113 | silmitasertib -0.029 | [2] -0.002 | entospletinib -0.014
